Measured values reported in the supplement of paper PMC10849652.
Some of the results follow.

Sequences of proteins named here, by UniProt entry; tags and fusion partners are left off. A change or cut given only in a name is not applied to a line headed by its entry.
UniProt Q86SJ2: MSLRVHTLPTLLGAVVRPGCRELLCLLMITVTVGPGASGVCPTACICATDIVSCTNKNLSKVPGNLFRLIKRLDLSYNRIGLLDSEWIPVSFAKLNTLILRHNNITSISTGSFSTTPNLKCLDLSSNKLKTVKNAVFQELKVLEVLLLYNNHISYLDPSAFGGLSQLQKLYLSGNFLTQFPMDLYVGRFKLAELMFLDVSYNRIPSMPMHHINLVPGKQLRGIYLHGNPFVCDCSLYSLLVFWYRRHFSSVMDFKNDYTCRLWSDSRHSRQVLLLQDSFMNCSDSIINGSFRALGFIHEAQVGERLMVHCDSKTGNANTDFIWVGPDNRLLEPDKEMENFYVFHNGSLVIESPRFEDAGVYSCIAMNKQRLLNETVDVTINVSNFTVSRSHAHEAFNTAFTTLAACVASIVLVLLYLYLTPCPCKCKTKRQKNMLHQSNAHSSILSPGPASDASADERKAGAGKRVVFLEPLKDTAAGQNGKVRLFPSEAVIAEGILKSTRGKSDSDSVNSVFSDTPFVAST
UniProt Q6P6B7: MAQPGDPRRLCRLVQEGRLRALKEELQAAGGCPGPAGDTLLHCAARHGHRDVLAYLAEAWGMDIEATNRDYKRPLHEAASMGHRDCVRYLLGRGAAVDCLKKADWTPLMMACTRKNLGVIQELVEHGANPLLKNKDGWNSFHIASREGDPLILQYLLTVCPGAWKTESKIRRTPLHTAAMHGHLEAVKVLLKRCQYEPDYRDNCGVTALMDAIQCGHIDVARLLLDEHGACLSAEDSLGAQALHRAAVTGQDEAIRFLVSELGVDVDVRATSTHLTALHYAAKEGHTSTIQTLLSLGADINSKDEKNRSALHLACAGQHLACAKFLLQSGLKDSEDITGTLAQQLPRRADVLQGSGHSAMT
UniProt Q9UKV5, whole entry, looked up: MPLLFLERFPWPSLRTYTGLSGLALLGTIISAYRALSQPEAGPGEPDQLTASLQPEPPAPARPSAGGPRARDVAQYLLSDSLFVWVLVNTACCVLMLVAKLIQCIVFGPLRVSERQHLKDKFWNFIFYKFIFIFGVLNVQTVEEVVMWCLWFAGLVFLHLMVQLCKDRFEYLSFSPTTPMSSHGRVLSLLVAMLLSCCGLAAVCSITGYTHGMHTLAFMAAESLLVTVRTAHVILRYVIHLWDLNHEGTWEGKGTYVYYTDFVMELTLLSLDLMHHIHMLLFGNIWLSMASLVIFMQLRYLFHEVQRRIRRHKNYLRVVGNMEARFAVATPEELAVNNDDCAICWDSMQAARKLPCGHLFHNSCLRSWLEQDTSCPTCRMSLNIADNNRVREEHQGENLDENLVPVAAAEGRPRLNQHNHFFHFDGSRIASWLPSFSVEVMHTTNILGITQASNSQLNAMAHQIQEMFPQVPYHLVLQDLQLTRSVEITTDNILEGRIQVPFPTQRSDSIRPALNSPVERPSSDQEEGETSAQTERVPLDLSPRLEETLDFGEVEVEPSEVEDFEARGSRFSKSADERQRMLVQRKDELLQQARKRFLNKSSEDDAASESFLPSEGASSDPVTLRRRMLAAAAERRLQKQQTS
UniProt P30838: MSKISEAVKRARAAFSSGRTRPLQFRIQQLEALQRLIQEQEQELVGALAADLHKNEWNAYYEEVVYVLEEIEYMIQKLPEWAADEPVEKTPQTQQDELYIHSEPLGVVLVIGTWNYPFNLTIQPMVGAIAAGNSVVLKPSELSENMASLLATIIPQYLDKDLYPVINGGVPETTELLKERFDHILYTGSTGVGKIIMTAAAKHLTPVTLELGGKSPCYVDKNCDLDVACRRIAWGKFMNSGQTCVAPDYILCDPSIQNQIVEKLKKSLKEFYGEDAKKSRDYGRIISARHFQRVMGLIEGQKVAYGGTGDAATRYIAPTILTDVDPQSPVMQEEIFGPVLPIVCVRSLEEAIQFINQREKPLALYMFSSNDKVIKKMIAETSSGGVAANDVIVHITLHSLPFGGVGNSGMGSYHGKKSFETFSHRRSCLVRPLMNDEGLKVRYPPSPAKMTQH
UniProt Q86YJ7: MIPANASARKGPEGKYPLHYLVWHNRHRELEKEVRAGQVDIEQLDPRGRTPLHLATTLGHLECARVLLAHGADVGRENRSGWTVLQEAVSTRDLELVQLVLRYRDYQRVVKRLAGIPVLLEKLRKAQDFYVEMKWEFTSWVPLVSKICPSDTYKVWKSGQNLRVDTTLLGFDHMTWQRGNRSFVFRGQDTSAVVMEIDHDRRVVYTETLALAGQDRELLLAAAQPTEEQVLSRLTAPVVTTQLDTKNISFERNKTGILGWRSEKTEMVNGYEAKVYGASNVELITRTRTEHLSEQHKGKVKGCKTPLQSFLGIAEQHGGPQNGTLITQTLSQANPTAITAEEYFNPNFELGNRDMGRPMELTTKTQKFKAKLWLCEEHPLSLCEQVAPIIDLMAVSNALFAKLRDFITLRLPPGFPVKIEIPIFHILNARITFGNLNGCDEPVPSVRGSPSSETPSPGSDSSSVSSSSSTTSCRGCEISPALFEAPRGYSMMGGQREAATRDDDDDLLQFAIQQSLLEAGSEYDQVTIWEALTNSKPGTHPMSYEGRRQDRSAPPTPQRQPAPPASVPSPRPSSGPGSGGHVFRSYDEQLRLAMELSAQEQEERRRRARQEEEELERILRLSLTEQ
UniProt P09917: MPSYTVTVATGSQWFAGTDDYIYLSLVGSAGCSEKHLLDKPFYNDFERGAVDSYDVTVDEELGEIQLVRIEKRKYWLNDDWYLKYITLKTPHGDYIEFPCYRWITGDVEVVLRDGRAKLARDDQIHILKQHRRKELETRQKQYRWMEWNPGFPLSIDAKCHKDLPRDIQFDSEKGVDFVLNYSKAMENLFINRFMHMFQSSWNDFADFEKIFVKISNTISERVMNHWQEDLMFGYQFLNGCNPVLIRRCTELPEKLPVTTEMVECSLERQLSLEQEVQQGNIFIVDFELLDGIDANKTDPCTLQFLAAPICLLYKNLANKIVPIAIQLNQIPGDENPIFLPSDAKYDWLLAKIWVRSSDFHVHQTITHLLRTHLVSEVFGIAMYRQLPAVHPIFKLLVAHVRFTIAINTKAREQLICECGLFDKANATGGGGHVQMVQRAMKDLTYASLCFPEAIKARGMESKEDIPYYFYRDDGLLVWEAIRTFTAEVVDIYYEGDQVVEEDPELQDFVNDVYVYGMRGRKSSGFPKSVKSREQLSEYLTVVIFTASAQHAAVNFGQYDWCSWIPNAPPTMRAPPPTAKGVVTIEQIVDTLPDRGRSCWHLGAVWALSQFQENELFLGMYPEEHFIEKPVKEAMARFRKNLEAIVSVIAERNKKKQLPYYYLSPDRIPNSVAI
UniProt Q9BT30: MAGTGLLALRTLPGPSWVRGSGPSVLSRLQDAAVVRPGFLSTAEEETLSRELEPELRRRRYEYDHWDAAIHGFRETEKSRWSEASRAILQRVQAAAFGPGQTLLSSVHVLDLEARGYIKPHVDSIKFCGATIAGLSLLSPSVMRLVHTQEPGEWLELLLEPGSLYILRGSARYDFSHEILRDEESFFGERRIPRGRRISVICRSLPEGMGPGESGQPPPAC
UniProt P54886: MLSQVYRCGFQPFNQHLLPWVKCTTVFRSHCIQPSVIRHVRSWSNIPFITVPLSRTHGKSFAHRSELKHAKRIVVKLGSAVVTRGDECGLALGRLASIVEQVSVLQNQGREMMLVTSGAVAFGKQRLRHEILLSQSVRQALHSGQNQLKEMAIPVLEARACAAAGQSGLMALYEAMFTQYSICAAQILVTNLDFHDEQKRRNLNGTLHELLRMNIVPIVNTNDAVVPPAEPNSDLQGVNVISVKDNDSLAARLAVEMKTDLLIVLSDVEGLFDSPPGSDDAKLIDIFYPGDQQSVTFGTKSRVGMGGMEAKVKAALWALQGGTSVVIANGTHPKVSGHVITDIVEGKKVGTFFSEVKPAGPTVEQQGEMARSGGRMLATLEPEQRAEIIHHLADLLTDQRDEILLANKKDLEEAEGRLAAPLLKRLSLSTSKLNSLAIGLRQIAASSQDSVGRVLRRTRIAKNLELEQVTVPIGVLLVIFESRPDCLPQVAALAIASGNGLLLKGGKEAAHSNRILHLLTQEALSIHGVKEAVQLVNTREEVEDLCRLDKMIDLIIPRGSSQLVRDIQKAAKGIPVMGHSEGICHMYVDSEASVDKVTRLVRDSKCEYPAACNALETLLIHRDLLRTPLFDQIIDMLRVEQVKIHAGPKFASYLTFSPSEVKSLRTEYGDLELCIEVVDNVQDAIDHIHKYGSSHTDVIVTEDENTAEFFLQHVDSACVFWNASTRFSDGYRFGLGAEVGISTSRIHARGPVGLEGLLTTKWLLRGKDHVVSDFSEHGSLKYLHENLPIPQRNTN
UniProt Q13686: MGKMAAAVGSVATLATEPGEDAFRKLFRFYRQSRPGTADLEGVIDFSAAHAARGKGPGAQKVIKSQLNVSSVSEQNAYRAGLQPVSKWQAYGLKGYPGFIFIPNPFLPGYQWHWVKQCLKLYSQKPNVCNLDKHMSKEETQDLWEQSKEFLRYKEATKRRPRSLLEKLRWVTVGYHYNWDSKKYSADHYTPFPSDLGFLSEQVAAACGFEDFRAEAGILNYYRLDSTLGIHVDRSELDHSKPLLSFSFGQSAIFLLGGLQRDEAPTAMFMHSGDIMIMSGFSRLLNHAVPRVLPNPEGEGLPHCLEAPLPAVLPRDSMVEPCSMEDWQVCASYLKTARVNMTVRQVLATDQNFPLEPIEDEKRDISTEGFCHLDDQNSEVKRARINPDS
UniProt O75342: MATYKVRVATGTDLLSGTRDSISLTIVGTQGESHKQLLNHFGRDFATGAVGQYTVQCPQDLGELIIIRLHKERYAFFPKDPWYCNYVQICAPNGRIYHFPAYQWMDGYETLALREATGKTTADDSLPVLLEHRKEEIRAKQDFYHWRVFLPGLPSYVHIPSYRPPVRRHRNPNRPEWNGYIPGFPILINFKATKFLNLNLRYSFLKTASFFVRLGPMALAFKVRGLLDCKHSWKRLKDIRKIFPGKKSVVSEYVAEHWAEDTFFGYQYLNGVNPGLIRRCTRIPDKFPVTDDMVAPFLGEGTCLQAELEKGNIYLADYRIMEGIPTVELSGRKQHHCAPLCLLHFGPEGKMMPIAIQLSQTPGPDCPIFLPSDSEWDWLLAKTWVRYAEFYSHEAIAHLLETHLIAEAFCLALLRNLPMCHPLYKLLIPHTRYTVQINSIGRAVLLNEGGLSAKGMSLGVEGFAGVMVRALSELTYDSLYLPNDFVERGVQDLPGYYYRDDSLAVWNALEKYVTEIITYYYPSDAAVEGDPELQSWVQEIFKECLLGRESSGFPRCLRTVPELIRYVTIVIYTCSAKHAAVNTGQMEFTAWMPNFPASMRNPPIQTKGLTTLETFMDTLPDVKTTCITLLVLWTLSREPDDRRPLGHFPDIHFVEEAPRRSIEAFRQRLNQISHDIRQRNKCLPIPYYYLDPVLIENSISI
UniProt Q9BS18, whole entry, looked up: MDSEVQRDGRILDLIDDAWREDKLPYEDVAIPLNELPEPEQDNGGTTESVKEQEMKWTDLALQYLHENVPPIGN
UniProt Q9UNK9: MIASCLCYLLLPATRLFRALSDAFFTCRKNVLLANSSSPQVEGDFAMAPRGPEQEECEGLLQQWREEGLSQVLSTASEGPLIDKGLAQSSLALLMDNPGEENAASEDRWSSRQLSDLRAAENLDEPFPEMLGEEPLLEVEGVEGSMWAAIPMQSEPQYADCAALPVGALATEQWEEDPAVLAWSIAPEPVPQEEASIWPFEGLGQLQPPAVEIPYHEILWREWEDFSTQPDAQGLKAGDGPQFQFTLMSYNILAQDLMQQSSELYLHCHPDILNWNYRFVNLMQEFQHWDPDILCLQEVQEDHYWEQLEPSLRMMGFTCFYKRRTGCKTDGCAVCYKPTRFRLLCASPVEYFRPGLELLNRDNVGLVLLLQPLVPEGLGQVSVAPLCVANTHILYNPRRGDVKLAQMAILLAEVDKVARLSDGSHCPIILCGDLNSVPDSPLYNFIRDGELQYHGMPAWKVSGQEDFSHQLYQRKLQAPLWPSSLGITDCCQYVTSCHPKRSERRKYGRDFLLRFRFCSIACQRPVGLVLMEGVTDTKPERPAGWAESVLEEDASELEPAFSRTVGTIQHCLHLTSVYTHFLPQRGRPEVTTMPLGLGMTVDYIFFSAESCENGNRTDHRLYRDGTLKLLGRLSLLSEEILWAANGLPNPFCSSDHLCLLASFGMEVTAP
UniProt Q53RE8: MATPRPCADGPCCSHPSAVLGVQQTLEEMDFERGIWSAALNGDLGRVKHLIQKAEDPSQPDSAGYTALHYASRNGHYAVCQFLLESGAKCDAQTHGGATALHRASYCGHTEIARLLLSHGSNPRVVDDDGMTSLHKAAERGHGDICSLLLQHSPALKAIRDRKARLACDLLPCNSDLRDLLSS

What was measured:
Test in all cases: log2 fold change, soluble protein after heating vs DMSO (PISA); higher = thermal stabilisation; K562 lysate, 10 uM; active = over 0.2 and 3.5 SD of the protein, either way, in both replicates (recomputed)
[1] = compound: CC1=C2C(=CC=C1)N=C(N(C2=O)C3=CC=CC=C3C)CN4C=NC5=C(N=CN=C54)N
In short: (§1)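 Quantification was by TMTpro 16plex LC-MS/MS with equalised channel sums, applied to the supernatant after 21,000xg for 90 min. Samples were crude K562 extract at 1 mg/mL protein in PBS pH 7.4 with 1 mM MgCl2, treated with 10 μM compound for 30 min, heated for 3 min across 48°C-58°C, pooled and brought to 0.5% NP-40 at 4°C. Values are log-two fold changes in thermal stability relative to solvent controls, from duplicates.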

[2] = compound: c1ccc([C@@H]2C[C@H]2NC2CCNCC2)cc1
In short: as §1

[3] = compound: Cc1sc2c(c1C)C(c1ccc(Cl)cc1)=N[C@@H](CC(=O)OC(C)(C)C)c1nnc(C)n1-2
In short: as §1

[4] = compound: C1=CC=C(C=C1)[C@H](COC2=CC3=C(C=C2)NC(=O)N3)NC(=O)C4=CC=CN(C4=O)CC5=CC(=C(C=C5)F)F
In short: as §1

[5] = compound: CC1=C(SC2=C1C(=N[C@H](C3=NN=C(N32)C)CC(=O)N)C4=CC=C(C=C4)Cl)C
In short: as §1

AMIGO2 (UniProt Q86SJ2)
log2 fold change [1]: inactive: -0.216
log2 fold change [2]: inactive: 0.045

AMOT (UniProt Q4VCS5)
log2 fold change [3]: inactive: 0.025

AKR7L (UniProt Q8NHP1)
log2 fold change [3]: inactive: -0.067

ANKH (UniProt Q9HCJ1)
log2 fold change [1]: inactive: -0.078

ANO9 (UniProt A1A5B4)
log2 fold change [3]: inactive: 0.057

ANKRD16 (UniProt Q6P6B7)
log2 fold change [4]: inactive: 0.21
log2 fold change [5]: inactive: 0.028
log2 fold change [3]: inactive: 0.004
log2 fold change [2]: inactive: -0.004

ANAPC16 (UniProt Q96DE5)
log2 fold change [1]: inactive: 0.041
log2 fold change [3]: inactive: 0.078
log2 fold change [2]: inactive: 0.049

ANKRD46 (UniProt Q86W74)
log2 fold change [1]: inactive: -0.291
log2 fold change [3]: inactive: 0.049
log2 fold change [2]: inactive: -0.069

ANXA2 (UniProt H0YL33)
log2 fold change [4]: inactive: 0.079
log2 fold change [5]: inactive: -0.079
log2 fold change [3]: inactive: -0.135
log2 fold change [2]: inactive: 0.466

AP3D1 isoform 2 (UniProt O14617)
log2 fold change [1]: inactive: -0.009
log2 fold change [2]: inactive: 0.061

ANKRD50 (UniProt Q9ULJ7)
log2 fold change [2]: inactive: 0.028

ALG13 isoform 2 (UniProt Q9NP73)
log2 fold change [2]: inactive: -0.109

AMFR (UniProt Q9UKV5)
log2 fold change [1]: inactive: 0.048
log2 fold change [3]: inactive: 0.055
log2 fold change [2]: inactive: -0.065

ALDH3A1 (UniProt P30838)
log2 fold change [3]: inactive: -0.209
log2 fold change [2]: inactive: -0.339

ANKRD13B (UniProt Q86YJ7)
log2 fold change [3]: inactive: 0.078

ALDH3A2 isoform 2 (UniProt P51648)
log2 fold change [3]: inactive: -0.419
log2 fold change [2]: inactive: -0.132

AMN1 (UniProt Q8IY45)
log2 fold change [2]: inactive: 0.104

ANKHD1 isoform 2 (UniProt Q8IWZ3)
log2 fold change [4]: inactive: -0.071
log2 fold change [5]: inactive: -0.038
log2 fold change [3]: inactive: -0.031
log2 fold change [2]: inactive: 0.032

ANKS6 isoform 4 (UniProt Q68DC2)
log2 fold change [3]: inactive: -0.064

AMDHD2 (UniProt Q9Y303)
log2 fold change [1]: inactive: 0.039
log2 fold change [2]: inactive: 0.095

ALOX5 (UniProt P09917)
log2 fold change [2]: inactive: -0.149

AMMECR1L (UniProt Q6DCA0)
log2 fold change [1]: inactive: 0.089
log2 fold change [3]: inactive: -0.044
log2 fold change [2]: inactive: 0.036

AMBRA1 isoform 5 (UniProt Q9C0C7)
log2 fold change [1]: inactive: -0.218
log2 fold change [3]: inactive: -0.146
log2 fold change [2]: inactive: 0.031

AP2S1 (UniProt M0QZ21)
log2 fold change [4]: inactive: -0.059
log2 fold change [5]: inactive: -0.01
log2 fold change [2]: inactive: -0.035

ANAPC15 isoform 2 (UniProt P60006)
log2 fold change [3]: inactive: 0.396
log2 fold change [2]: inactive: -0.05

ALKBH7 (UniProt Q9BT30)
log2 fold change [3]: inactive: -0.012
log2 fold change [2]: inactive: -0.014

ALDH18A1 isoform 2 (UniProt P54886)
log2 fold change [1]: inactive: 0.229
log2 fold change [3]: inactive: -0.068

ALKBH1 (UniProt Q13686)
log2 fold change [1]: inactive: -0.036
log2 fold change [3]: inactive: -0.001
log2 fold change [2]: inactive: 0.051

ANKRD11 (UniProt Q6UB99)
log2 fold change [1]: inactive: 0.091
log2 fold change [3]: inactive: 0.025
log2 fold change [2]: inactive: 0.323

ALOX12B (UniProt O75342)
log2 fold change [4]: inactive: -0.006
log2 fold change [5]: inactive: 0.034
log2 fold change [2]: inactive: 0.05

ANAPC13 (UniProt Q9BS18)
log2 fold change [1]: inactive: -0.269

ANGEL1 (UniProt Q9UNK9)
log2 fold change [2]: inactive: 0.002

ALG11 (UniProt Q2TAA5)
log2 fold change [4]: inactive: -0.095
log2 fold change [5]: inactive: 0.001
log2 fold change [3]: inactive: 0.085
log2 fold change [2]: inactive: -0.002

ANK2 (UniProt Q01484)
log2 fold change [4]: inactive: 0.019
log2 fold change [5]: inactive: -0.23
log2 fold change [3]: inactive: 0.047
log2 fold change [2]: inactive: 0.127

ALKBH6 isoform 2 (UniProt Q3KRA9)
log2 fold change [1]: inactive: 0.038
log2 fold change [3]: inactive: -0.034
log2 fold change [2]: inactive: 0.038

AKTIP isoform 2 (UniProt Q9H8T0)
log2 fold change [3]: inactive: 0.02

ANXA6 (UniProt E5RK69)
log2 fold change [3]: inactive: -0.062

ANKRD39 (UniProt Q53RE8)
log2 fold change [3]: inactive: 0.114
log2 fold change [2]: inactive: 0.093

ANKHD1 (UniProt D6RHC4)
log2 fold change [3]: inactive: 0.099

ALAS1 (UniProt P13196)
log2 fold change [4]: inactive: 0.058
log2 fold change [5]: inactive: -0.431
log2 fold change [3]: inactive: -0.08
log2 fold change [2]: inactive: 0.01
